This is an account of results in publication PMC9554868.

Results are given in words; binding and its absence hold for the method and conditions named. In cells and extracts the contact can be indirect. For some assays here: Binding can be weak; no strength is given.

Common to all, as to experiment: co-IP
The target in experiment [1] is T1, RNF26 deletion mutant 1–385 (UniProt Q9BY78).
T1 sequence: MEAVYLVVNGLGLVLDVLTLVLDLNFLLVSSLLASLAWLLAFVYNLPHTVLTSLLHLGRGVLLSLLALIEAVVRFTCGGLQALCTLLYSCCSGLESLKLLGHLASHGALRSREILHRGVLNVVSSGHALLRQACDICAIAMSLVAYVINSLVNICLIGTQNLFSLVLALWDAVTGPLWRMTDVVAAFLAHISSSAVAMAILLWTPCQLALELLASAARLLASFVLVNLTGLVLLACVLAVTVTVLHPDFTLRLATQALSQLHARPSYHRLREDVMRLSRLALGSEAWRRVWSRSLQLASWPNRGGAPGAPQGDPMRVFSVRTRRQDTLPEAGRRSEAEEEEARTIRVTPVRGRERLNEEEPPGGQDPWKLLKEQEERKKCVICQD

Experiment [2] concerns the target T2, RNF26 deletion mutant 241–385 (UniProt Q9BY78).
T2 sequence: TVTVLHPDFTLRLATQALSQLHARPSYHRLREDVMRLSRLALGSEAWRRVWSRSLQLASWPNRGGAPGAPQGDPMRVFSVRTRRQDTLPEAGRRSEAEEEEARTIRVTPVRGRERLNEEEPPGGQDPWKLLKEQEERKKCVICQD

Experiment [3] deals with RNF26 deletion mutant 241–433 (UniProt Q9BY78).
Experiment [4] concerns the target T3, RNF26 deletion mutant 76–385 (UniProt Q9BY78).
T3 sequence: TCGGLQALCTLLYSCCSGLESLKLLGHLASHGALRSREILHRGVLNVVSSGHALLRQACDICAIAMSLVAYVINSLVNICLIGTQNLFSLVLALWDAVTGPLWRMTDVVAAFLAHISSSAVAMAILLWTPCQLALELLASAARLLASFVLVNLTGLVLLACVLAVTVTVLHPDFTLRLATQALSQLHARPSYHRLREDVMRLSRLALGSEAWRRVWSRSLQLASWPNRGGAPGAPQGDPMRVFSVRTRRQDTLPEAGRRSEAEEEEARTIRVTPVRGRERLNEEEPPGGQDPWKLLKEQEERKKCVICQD

Experiment [5] deals with RNF26 deletion mutant 76–433 (UniProt Q9BY78).

For the substance “EBOV-GP1,2 with a HiBiT tag (from UniProt Q05320)”, the binding entry is recorded as “binds” in experiment [1]; “no binding” in experiment [2]; “no binding” in experiment [3]; “binds” in experiment [4]; “binds” in experiment [5].
